# From PMC6411009
# The chains behind the UniProt entries cited, without tags or fusion partners.
# UniProt P78527: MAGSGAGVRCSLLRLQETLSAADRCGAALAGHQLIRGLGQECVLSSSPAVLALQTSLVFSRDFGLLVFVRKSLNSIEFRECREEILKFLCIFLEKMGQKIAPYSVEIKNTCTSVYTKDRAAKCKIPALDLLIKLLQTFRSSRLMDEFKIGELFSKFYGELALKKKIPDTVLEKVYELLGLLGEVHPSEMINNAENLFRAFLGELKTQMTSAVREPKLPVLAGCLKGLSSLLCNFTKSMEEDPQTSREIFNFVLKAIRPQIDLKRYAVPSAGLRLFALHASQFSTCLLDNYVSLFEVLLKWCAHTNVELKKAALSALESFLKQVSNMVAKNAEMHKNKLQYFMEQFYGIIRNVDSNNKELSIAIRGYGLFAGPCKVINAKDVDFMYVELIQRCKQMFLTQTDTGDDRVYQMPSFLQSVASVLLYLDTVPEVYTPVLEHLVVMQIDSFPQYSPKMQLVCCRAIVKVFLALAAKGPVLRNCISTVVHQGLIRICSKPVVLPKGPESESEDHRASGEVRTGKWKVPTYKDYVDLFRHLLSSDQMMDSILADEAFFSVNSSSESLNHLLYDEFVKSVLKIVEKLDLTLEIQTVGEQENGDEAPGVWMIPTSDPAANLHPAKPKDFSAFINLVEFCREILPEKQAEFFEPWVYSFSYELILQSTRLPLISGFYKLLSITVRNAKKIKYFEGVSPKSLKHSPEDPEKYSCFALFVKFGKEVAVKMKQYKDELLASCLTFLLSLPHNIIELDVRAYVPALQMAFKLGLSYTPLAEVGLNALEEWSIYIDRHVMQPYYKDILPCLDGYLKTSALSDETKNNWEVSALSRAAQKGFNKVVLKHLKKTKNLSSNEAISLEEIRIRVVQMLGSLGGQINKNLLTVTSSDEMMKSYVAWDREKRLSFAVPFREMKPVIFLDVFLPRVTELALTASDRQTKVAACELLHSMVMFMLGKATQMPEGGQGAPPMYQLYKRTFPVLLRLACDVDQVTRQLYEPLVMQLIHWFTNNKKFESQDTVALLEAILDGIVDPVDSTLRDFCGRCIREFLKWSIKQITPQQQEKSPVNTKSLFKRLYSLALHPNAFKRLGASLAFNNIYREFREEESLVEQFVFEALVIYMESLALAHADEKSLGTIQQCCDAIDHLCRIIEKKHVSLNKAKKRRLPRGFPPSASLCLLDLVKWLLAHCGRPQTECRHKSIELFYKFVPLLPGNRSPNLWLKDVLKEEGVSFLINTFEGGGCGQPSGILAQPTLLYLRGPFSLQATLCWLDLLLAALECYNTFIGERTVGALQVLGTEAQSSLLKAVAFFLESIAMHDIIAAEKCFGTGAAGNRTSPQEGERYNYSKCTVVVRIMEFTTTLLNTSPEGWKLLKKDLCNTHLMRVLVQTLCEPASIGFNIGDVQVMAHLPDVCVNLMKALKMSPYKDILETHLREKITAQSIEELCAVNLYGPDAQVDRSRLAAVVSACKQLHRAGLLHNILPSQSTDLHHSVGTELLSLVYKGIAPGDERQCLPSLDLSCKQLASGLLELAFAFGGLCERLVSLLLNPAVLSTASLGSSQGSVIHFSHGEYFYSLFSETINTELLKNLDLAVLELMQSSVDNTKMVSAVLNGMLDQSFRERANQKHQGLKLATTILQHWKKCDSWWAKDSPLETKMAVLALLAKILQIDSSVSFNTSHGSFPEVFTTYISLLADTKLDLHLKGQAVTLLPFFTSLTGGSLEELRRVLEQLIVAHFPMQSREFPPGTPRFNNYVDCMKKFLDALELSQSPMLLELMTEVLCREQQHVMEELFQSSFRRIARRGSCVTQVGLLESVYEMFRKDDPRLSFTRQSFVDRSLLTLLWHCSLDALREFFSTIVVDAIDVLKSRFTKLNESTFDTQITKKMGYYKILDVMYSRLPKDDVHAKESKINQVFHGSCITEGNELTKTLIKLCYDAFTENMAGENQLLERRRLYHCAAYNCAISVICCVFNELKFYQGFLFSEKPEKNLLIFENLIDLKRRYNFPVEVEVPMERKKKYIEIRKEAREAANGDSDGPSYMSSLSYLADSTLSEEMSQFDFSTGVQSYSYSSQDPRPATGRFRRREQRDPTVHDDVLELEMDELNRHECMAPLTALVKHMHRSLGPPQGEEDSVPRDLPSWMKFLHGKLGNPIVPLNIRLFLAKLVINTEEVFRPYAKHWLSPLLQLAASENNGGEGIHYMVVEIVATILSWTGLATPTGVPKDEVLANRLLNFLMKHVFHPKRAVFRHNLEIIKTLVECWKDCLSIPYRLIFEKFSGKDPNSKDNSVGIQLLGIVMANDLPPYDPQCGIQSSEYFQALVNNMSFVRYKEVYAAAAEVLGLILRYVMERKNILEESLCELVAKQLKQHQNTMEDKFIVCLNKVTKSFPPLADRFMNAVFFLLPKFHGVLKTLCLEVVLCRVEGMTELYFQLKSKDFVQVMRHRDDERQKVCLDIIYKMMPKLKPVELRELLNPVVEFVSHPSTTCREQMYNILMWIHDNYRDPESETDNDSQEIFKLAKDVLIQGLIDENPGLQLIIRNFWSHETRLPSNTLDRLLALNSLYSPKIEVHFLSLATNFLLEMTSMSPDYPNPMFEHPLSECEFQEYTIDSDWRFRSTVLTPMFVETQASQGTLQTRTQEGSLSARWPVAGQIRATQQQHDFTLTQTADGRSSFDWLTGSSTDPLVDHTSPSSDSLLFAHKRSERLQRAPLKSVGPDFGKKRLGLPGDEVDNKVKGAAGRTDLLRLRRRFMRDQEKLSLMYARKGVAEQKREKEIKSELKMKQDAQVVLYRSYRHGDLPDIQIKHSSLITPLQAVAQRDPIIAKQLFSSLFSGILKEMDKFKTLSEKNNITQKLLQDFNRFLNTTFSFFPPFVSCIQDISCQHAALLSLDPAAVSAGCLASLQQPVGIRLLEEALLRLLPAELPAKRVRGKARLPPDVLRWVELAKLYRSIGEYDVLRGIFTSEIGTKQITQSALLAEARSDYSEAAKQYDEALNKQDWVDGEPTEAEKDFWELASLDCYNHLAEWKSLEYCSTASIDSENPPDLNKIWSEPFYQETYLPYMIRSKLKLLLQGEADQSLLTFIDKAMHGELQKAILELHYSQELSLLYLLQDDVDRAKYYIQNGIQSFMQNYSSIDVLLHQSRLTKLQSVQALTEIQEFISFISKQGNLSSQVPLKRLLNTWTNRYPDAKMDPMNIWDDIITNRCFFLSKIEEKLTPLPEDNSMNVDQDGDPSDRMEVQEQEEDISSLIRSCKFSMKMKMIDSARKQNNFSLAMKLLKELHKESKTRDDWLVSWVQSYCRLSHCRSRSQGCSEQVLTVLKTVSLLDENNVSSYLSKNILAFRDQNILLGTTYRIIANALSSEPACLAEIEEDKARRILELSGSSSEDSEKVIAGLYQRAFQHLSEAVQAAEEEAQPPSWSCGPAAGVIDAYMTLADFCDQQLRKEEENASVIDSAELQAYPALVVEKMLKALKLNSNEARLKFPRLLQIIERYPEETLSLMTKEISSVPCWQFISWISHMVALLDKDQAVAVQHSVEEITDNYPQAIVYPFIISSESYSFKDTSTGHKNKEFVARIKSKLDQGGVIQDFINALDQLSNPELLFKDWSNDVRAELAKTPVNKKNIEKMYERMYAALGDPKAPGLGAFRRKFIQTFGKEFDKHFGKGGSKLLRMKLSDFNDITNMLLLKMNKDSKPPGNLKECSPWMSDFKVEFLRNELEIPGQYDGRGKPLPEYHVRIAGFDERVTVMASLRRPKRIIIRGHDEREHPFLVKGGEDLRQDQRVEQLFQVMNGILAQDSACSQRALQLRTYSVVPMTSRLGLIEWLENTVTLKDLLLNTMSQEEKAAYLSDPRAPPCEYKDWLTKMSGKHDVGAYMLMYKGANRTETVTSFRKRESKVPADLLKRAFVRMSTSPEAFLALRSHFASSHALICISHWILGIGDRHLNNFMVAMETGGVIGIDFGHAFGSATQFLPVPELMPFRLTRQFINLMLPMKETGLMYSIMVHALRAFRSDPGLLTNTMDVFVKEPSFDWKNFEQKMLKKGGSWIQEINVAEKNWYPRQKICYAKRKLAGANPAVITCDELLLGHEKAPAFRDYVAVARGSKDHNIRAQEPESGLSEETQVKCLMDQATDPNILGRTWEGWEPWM
# UniProt P12956: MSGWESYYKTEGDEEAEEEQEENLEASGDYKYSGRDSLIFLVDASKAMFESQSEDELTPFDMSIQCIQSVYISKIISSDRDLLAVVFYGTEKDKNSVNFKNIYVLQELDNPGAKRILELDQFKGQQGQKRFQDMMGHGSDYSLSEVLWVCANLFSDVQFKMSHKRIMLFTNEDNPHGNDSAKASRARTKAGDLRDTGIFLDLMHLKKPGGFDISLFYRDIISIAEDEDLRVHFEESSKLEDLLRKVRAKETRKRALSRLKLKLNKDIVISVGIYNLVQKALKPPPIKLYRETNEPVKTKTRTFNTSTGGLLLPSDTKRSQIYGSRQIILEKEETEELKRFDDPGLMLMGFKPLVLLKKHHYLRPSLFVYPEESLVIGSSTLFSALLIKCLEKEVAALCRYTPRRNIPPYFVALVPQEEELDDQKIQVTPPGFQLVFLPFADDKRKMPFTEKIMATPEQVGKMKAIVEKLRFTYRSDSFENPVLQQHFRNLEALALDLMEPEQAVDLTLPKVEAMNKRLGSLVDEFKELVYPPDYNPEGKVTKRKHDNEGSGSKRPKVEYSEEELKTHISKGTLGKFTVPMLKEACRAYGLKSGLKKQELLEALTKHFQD
# UniProt P09874: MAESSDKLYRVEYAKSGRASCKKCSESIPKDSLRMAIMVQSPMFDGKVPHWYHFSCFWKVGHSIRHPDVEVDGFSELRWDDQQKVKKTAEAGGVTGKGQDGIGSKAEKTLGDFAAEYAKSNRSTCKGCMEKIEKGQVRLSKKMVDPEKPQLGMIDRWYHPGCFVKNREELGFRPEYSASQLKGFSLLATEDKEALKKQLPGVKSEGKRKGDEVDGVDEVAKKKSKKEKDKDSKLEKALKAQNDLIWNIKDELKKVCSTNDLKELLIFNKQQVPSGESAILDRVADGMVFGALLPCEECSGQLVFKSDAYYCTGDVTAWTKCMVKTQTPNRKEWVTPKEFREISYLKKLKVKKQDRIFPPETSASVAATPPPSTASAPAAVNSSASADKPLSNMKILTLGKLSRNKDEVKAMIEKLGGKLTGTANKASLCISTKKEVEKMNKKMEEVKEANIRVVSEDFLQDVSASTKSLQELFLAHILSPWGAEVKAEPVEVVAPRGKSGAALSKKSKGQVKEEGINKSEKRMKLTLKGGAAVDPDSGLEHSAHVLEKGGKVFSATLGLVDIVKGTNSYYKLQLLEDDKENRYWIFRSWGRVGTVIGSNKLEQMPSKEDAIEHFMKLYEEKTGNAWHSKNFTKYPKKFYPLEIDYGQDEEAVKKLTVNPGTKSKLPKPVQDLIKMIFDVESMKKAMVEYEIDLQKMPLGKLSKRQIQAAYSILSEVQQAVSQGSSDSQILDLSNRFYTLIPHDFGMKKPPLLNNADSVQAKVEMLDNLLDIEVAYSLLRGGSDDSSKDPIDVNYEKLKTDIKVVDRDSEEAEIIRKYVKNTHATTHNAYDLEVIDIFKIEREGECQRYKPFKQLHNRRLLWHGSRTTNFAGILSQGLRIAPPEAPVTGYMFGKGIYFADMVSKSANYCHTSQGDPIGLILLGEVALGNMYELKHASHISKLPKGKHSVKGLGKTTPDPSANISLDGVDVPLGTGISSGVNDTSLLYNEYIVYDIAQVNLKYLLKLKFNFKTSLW
# No constants are given. Whether binding was seen depends on the method and setting. Binding seen in cells or lysates may run through a third protein. A yes stands for co-enrichment or nearness to the bait. Other partners may have been found. For some of these results: No binding means not detected with the bait.
# B1: CREM (protein, UniProt Q03060 1-345)
# chain: MTMETVESQHDGSITASLTESKSAHVQTQTGQNSIPALAQVSVAGSGTRRGSPAVTLVQLPSGQTIHVQGVIQTPQPWVIQSSEIHTVQVAAIAETDESAESEGVIDSHKRREILSRRPSYRKILNELSSDVPGVPKIEEERSEEEGTPPSIATMAVPTSIYQTSTGQYIAIAQGGTIQISNPGSDGVQGLQALTMTNSGAPPPGATIVQYAAQSADGTQQFFVPGSQVVVQDEETELAPSHMAAATGDMPTYQIRAPTAALPQGVVMAASPGSLHSPQQLAEEATRKRELRLMKNREAAKECRRRKKEYVKCLESRVAVLEVQNKKLIEELETLKDICSPKTDY
# Target: Flag epitope-tagged BRN2 wild type (UniProt P31360)
# Test: affinity purification with mass spectrometry; Flag AP-MS from stable 501mel cells expressing BRN2-Flag wild type or truncation mutants (uninduced, or 10 ng of doxycycline); low-salt lysis buffer (50 mM HEPES-NaOH pH 8.0, 100 mM KCl, 2 mM EDTA, 0.1% NP40, 10% glycerol), sonication, benzonase, anti-Flag M2 magnetic beads 2 h at 4°C; SAINTexpress against untagged parental 501mel controls, FDR ≤1%
row,binding,Molecule
1,binds,DNA-dependent protein kinase (DNAPK and PRKDC) (from UniProt P78527 1-4128) (enzyme)
2,binds,"Ku70 (XRCC6), endogenous (from UniProt P12956 1-609)"
3,binds,"Ku80 (XRCC5), endogenous (from UniProt P13010 1-732)"
4,binds,"PARP1, endogenous (from UniProt P09874 1-1014) (enzyme)"
5,binds,importin 5 (IPO5) (from UniProt O00410 1-1097)
6,no binding,p300 (from UniProt Q09472 1-2414)

# Target: Flag epitope-tagged BRN2 wild type (UniProt P31360)
# Test: as above
# Remark: another data set of the same source
row,binding,Molecule
1,binds,B1
